pKd: −log10 of the molar value. The exact form of at least one protein or probe is not confirmed.
Target: IMP1 KH34 Y396F (Gallus gallus) (UniProt O42254)
Assay: BLI
Conditions: interferograms previously obtained (ref 19); BLI: 10 mM Na2HPO4 pH 6.5, 50 mM NaCl, 1 mM TCEP, 2 mg/ml BSA, 0.005% Tween-20, 25 C; recombinant protein; protein details: N-terminal 6xHis removed by TEV; label: 5' biotin

Chains of the proteins cited; added tags and fusions are not shown. Residues count along the entry.
UniProt O42254, 387-573 Y396F: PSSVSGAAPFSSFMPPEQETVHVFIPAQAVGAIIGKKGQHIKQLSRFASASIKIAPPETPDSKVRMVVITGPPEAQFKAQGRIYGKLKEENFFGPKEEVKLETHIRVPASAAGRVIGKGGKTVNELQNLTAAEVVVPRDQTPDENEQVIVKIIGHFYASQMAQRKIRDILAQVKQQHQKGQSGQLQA

Sequence: ACCGGACUGUUACCAACACCCACACCCC [ACTB zipcode RNA, unmodified]
- pKd: 7.68
